Results reported in publication PMC6474862.
No constants are given. Whether binding was seen depends on the method and setting. Binding seen in cells or lysates may run through a third protein. Some entries that bind do so weakly or less than the wild type.

Sequences of proteins named here, by UniProt entry; tags and fusion partners are left off.
UniProt Q9HCE7: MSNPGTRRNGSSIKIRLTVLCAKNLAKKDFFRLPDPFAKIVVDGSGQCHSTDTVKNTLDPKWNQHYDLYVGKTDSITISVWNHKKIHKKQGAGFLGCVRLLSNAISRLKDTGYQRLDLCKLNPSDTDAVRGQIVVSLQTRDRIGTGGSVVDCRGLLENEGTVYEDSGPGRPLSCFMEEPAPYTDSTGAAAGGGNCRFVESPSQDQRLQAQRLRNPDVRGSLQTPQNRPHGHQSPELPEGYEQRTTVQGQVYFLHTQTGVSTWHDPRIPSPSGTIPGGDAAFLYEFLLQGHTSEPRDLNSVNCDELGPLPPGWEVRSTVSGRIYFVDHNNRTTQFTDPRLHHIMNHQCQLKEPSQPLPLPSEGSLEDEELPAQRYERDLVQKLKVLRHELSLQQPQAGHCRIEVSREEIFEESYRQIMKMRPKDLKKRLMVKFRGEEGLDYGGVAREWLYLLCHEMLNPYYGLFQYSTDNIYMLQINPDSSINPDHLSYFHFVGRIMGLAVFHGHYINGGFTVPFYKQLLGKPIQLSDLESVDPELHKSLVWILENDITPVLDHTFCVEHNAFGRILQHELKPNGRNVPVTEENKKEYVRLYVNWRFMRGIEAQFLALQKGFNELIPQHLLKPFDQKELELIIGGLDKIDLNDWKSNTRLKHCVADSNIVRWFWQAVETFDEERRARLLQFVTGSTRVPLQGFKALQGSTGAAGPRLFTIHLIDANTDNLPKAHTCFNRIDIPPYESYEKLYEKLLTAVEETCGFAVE

B1: Rho GTPase-activating protein 26 (ARHGAP26) (protein, UniProt Q9UNA1 1-814)
chain: MGLPALEFSDCCLDSPHFRETLKSHEAELDKTNKFIKELIKDGKSLISALKNLSSAKRKFADSLNEFKFQCIGDAETDDEMCIARSLQEFATVLRNLEDERIRMIENASEVLITPLEKFRKEQIGAAKEAKKKYDKETEKYCGILEKHLNLSSKKKESQLQEADSQVDLVRQHFYEVSLEYVFKVQEVQERKMFEFVEPLLAFLQGLFTFYHHGYELAKDFGDFKTQLTISIQNTRNRFEGTRSEVESLMKKMKENPLEHKTISPYTMEGYLYVQEKRHFGTSWVKHYCTYQRDSKQITMVPFDQKSGGKGGEDESVILKSCTRRKTDSIEKRFCFDVEAVDRPGVITMQALSEEDRRLWMEAMDGREPVYNSNKDSQSEGTAQLDSIGFSIIRKCIHAVETRGINEQGLYRIVGVNSRVQKLLSVLMDPKTASETETDICAEWEIKTITSALKTYLRMLPGPLMMYQFQRSFIKAAKLENQESRVSEIHSLVHRLPEKNRQMLQLLMNHLANVANNHKQNLMTVANLGVVFGPTLLRPQEETVAAIMDIKFQNIVIEILIENHEKIFNTVPDMPLTNAQLHLSRKKSSDSKPPSCSERPLTLFHTVQSTEKQEQRNSIINSSLESVSSNPNSILNSSSSLQPNMNSSDPDLAVVKPTRPNSLPPNPSPTSPLSPSWPMFSAPSSPMPTSSTSSDSSPVRSVAGFVWFSVAAVVLSLARSSLHAVFSLLVNFVPCHPNLHLLFDRPEEAVHEDSSTPFRKAKALYACKAEHDSELSFTAGTVFDNVHPSQEPGWLEGTLNGKTGLIPENYVEFL

Legend:
[1] = biological target: T1, Rho GTPase-activating protein 26 (ARHGAP26) (human (endogenous in SKOV3)) (UniProt Q9UNA1); assay: co-IP; SKOV3 whole-cell lysates incubated with 2 ug anti-ARHGAP26, anti-SMURF1 or normal IgG antibody and protein G-agarose beads at 4 C overnight; SDS-PAGE and blot with anti-SMURF1 or anti-ARHGAP26
T1 sequence: B1 chain

[2] = biological target: Smad ubiquitination regulatory factor 1 (SMURF1) (human (endogenous in SKOV3)) (UniProt Q9HCE7); assay: as above

Molecule	binding [1]	binding [2]
Smad ubiquitination regulatory factor 1 (SMURF1) (from UniProt Q9HCE7 1-757) (enzyme)	binds	–
B1	–	binds
